No constants are given. Whether binding was seen depends on the method and setting. Binding seen in cells or lysates may run through a third protein. Some entries that bind do so weakly or less than the wild type. Where a sequence is shown, tags or fusion partners need not be part of it.
T1: eYFP-SANS (USH1G protein SANS, scaffold protein containing ankyrin repeats and SAM domain) (human) (UniProt Q495M9)
T1 sequence: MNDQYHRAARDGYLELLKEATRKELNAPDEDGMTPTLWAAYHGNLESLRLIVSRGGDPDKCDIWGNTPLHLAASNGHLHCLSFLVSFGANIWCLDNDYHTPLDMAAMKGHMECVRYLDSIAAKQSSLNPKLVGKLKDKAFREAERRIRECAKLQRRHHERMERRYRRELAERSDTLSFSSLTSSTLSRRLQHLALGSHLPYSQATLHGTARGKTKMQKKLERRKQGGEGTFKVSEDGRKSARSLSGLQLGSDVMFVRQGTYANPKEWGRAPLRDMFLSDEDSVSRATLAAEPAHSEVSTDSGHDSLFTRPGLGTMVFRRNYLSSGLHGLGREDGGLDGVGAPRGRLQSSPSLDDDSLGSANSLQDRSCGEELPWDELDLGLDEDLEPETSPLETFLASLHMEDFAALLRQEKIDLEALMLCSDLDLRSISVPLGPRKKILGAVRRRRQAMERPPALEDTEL

B1: PRPF6-eCFP (pre-mRNA processing factor PRPF6) (protein, UniProt O94906 1-941)
chain: MNKKKKPFLGMPAPLGYVPGLGRGATGFTTRSDIGPARDANDPVDDRHAPPGKRTVGDQMKKNQAADDDDEDLNDTNYDEFNGYAGSLFSSGPYEKDDEEADAIYAALDKRMDERRKERREQREKEEIEKYRMERPKIQQQFSDLKRKLAEVTEEEWLSIPEVGDARNKRQRNPRYEKLTPVPDSFFAKHLQTGENHTSVDPRQTQFGGLNTPYPGGLNTPYPGGMTPGLMTPGTGELDMRKIGQARNTLMDMRLSQVSDSVSGQTVVDPKGYLTDLNSMIPTHGGDINDIKKARLLLKSVRETNPHHPPAWIASARLEEVTGKLQVARNLIMKGTEMCPKSEDVWLEAARLQPGDTAKAVVAQAVRHLPQSVRIYIRAAELETDIRAKKRVLRKALEHVPNSVRLWKAAVELEEPEDARIMLSRAVECCPTSVELWLALARLETYENARKVLNKARENIPTDRHIWITAAKLEEANGNTQMVEKIIDRAITSLRANGVEINREQWIQDAEECDRAGSVATCQAVMRAVIGIGIEEEDRKHTWMEDADSCVAHNALECARAIYAYALQVFPSKKSVWLRAAYFEKNHGTRESLEALLQRAVAHCPKAEVLWLMGAKSKWLAGDVPAARSILALAFQANPNSEEIWLAAVKLESENDEYERARRLLAKARSSAPTARVFMKSVKLEWVQDNIRAAQDLCEEALRHYEDFPKLWMMKGQIEEQKEMMEKAREAYNQGLKKCPHSTPLWLLLSRLEEKIGQLTRARAILEKSRLKNPKNPGLWLESVRLEYRAGLKNIANTLMAKALQECPNSGILWSEAIFLEARPQRRTKSVDALKKCEHDPHVLLAVAKLFWSQRKITKAREWFHRTVKIDSDLGDAWAFFYKFELQHGTEEQQEEVRKRCESAEPRHGELWCAVSKDIANWQKKIGDILRLVAGRIKNTF
B2: harmonin-eCFP (USH1C protein harmonin) (protein, UniProt Q9Y6N9 1-552)
chain: MDRKVAREFRHKVDFLIENDAEKDYLYDVLRMYHQTMDVAVLVGDLKLVINEPSRLPLFDAIRPLIPLKHQVEYDQLTPRRSRKLKEVRLDRLHPEGLGLSVRGGLEFGCGLFISHLIKGGQADSVGLQVGDEIVRINGYSISSCTHEEVINLIRTKKTVSIKVRHIGLIPVKSSPDEPLTWQYVDQFVSESGGVRGSLGSPGNRENKEKKVFISLVGSRGLGCSISSGPIQKPGIFISHVKPGSLSAEVGLEIGDQIVEVNGVDFSNLDHKEAVNVLKSSRSLTISIVAAAGRELFMTDRERLAEARQRELQRQELLMQKRLAMESNKILQEQQEMERQRRKEIAQKAAEENERYRKEMEQIVEEEEKFKKQWEEDWGSKEQLLLPKTITAEVHPVPLRKPKYDQGVEPELEPADDLDGGTEEQGEQDFRKYEEGFDPYSMFTPEQIMGKDVRLLRIKKEGSLDLALEGGVDSPIGKVVVSAVYERGAAERHGGIVKGDEIMAINGKIVTDYTLAEAEAALQKAWNQGGDWIDLVVAVCPPKEYDDELTFF
B3: eCFP-PRPF3 (protein, UniProt O43395 1-683)
chain: MALSKRELDELKPWIEKTVKRVLGFSEPTVVTAALNCVGKGMDKKKAADHLKPFLDDSTLRFVDKLFEAVEEGRSSRHSKSSSDRSRKRELKEVFGDDSEISKESSGVKKRRIPRFEEVEEEPEVIPGPPSESPGMLTKLQIKQMMEAATRQIEERKKQLSFISPPTPQPKTPSSSQPERLPIGNTIQPSQAATFMNDAIEKARKAAELQARIQAQLALKPGLIGNANMVGLANLHAMGIAPPKVELKDQTKPTPLILDEQGRTVDATGKEIELTHRMPTLKANIRAVKREQFKQQLKEKPSEDMESNTFFDPRVSIAPSQRQRRTFKFHDKGKFEKIAQRLRTKAQLEKLQAEISQAARKTGIHTSTRLALIAPKKELKEGDIPEIEWWDSYIIPNGFDLTEENPKREDYFGITNLVEHPAQLNPPVDNDTPVTLGVYLTKKEQKKLRRQTRREAQKELQEKVRLGLMPPPEPKVRISNLMRVLGTEAVQDPTKVEAHVRAQMAKRQKAHEEANAARKLTAEQRKVKKIKKLKEDISQGVHISVYRVRNLSNPAKKFKIEANAGQLYLTGVVVLHKDVNVVVVEGGPKAQKKFKRLMLHRIKWDEQTSNTKGDDDEESDEEAVKKTNKCVLVWEGTAKDRSFGEMKFKQCPTENMAREHFKKHGAEHYWDLALSESVLESTD

Assays:
[1] = target: T1, eYFP-SANS (USH1G protein SANS, scaffold protein containing ankyrin repeats and SAM domain) (human); test: FRET or BRET; FRET acceptor photobleaching in fixed HEK293T cells, eCFP-eYFP pair with a third protein co-expressed (mRFP-SANS, PRPF6-mCherry or mRFP-PRPF31; mRFP alone as control)
[2] = target: T1, eYFP-SANS (USH1G protein SANS, scaffold protein containing ankyrin repeats and SAM domain) (human); test: FRET or BRET; FRET acceptor photobleaching in fixed, co-transfected HEK293T cells; eCFP donor, eYFP acceptor; measured in the nucleus (harmonin pair in the cytoplasm); efficiencies normalised to the fused eCFP-c-eYFP pair where indicated

Row | Binder | binding [1] | binding [2]
1 | B1 | binds | binds
2 | B2 | – | binds
3 | B3 | – | no binding

Source: publication PMC10744108
